Data published in doi:10.1101/344275.
No constants are given. Whether binding was seen depends on the method and setting. In cells and extracts the contact can be indirect. Some binding calls cover weakened binding; strength is not graded here.

Sequences of proteins named here, by UniProt entry; tags and fusion partners are left off.
UniProt Q7Z6Z7: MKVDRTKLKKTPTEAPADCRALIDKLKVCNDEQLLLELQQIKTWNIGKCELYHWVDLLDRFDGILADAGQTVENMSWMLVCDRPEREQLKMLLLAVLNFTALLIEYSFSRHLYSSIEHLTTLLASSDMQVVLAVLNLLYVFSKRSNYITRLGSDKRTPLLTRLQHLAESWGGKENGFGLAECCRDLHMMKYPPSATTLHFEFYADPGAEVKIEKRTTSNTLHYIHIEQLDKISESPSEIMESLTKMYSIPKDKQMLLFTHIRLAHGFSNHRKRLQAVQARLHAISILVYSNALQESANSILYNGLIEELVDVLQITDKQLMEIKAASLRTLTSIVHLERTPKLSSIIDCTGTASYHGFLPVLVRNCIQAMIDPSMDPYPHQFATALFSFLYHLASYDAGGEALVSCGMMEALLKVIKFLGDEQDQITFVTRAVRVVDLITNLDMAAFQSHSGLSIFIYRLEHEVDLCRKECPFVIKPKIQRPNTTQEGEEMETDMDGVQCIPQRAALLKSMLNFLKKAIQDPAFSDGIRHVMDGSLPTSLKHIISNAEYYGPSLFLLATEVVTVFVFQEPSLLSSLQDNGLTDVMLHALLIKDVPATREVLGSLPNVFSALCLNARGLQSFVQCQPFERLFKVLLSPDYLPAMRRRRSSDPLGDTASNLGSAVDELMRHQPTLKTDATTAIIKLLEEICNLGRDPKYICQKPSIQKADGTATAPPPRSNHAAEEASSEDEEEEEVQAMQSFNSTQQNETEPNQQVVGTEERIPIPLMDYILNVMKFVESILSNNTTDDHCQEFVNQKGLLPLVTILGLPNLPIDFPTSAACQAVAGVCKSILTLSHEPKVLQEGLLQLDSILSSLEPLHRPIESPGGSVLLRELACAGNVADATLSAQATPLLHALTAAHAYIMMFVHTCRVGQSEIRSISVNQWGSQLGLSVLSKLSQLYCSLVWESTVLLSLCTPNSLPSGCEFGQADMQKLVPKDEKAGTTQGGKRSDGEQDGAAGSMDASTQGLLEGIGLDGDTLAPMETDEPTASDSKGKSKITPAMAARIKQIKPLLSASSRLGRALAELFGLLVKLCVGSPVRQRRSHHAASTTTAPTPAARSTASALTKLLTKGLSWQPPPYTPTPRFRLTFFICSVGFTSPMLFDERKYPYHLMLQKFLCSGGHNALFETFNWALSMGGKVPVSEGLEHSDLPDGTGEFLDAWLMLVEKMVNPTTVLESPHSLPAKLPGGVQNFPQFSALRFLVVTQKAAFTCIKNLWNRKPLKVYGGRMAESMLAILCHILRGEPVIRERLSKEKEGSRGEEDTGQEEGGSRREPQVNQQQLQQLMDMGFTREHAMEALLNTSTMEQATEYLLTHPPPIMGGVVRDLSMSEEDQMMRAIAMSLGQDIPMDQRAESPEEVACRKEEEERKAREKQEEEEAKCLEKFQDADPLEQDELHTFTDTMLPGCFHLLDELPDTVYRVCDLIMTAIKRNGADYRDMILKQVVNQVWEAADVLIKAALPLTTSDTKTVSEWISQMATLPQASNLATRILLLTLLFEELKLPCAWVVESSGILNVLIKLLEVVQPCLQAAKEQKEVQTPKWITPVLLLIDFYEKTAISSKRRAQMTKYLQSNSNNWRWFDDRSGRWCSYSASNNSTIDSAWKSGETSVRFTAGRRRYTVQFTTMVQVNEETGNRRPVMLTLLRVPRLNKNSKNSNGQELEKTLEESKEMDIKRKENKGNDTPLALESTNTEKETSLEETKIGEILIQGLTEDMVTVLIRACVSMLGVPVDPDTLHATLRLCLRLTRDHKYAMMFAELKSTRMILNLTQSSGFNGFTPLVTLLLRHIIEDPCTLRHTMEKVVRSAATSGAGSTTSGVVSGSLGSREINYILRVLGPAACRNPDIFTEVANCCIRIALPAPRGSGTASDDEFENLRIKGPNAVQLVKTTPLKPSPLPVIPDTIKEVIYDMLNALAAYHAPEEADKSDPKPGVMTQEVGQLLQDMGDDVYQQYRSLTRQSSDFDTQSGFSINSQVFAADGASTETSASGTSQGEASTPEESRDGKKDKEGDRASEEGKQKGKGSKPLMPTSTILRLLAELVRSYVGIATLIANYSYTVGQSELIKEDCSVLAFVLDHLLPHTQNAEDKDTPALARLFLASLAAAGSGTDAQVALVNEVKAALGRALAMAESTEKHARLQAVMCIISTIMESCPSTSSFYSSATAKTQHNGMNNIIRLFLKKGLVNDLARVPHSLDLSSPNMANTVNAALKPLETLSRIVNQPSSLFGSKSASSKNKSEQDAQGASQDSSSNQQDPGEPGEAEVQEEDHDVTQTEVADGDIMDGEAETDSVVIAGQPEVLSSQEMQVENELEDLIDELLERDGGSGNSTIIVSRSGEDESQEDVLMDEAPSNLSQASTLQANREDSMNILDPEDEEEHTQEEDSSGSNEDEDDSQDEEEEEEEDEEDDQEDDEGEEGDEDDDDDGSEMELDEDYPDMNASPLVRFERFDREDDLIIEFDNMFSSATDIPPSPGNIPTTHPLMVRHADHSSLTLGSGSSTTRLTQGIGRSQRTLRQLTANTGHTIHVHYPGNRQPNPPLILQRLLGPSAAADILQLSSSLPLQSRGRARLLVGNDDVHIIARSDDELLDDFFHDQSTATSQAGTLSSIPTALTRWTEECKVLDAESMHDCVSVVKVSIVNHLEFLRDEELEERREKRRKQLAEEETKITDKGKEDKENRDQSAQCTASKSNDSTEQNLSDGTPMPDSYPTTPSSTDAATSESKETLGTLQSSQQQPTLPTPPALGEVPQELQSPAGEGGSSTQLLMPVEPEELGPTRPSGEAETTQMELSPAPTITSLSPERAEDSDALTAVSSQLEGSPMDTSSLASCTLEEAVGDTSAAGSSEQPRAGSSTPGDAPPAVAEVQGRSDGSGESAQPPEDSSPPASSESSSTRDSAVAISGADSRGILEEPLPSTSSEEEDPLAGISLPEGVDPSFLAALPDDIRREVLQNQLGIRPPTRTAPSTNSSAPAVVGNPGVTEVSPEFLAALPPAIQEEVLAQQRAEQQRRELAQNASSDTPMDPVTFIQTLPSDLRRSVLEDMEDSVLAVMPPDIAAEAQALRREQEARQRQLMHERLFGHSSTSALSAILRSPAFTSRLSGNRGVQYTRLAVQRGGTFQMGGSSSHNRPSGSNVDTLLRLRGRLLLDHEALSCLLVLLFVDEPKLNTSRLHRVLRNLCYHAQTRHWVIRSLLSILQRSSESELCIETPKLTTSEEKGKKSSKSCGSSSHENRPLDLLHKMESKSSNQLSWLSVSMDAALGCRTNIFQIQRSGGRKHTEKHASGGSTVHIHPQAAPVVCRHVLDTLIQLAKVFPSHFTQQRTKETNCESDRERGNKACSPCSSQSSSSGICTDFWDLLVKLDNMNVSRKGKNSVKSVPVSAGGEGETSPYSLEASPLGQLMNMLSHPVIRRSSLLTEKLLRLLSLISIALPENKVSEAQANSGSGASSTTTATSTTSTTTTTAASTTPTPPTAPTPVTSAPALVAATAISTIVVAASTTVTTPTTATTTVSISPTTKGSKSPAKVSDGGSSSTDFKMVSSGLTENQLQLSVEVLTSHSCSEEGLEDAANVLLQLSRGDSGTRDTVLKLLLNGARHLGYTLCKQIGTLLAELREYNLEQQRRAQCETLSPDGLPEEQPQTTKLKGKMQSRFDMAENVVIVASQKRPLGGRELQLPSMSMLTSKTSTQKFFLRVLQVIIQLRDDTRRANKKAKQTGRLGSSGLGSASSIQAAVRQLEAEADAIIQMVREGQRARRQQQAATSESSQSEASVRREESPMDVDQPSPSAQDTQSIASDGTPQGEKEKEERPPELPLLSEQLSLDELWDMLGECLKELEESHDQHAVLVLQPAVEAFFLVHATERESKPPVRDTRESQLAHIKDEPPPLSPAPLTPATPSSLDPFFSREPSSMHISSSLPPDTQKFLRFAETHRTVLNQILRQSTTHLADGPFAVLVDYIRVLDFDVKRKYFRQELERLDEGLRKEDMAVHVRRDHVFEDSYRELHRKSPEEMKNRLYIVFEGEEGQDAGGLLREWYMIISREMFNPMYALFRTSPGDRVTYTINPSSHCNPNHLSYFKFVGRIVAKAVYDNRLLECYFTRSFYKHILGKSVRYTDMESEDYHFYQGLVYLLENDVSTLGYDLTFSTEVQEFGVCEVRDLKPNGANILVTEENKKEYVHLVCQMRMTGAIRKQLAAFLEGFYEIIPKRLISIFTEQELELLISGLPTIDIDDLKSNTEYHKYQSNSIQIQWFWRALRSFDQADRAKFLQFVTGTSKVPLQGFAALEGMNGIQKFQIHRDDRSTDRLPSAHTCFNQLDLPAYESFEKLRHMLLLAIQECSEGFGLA
UniProt P35226: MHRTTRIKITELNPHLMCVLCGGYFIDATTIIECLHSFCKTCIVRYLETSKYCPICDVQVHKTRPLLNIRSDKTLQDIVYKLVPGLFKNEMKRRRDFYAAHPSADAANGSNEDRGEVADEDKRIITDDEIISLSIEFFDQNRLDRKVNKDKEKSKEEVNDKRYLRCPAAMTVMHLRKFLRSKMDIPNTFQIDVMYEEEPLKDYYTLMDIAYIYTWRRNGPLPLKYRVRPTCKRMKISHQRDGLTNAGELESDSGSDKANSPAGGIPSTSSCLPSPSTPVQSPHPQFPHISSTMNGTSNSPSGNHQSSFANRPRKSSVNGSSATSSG

Columns and labels:
[1] = target: HUWE1 (human (endogenous in A549)) (UniProt Q7Z6Z7); test: co-IP
[2] = target: BMI1-HA (BMI1 and HA-tag fusion protein) (UniProt P35226); test: co-IP

| Substance | binding [1] | binding [2] |
| --- | --- | --- |
| BMI1-HA (BMI1 and HA-tag fusion protein) (from UniProt P35226 1-326) | binds | – |
| HUWE1 (from UniProt Q7Z6Z7 1-4374) (enzyme) | – | binds |
| endogenous BMI1 (from UniProt P35226 1-326) | binds | – |
